The values that follow come from the OPERA property sets (Mansouri et al. 2018).

Converted amounts (≈) assume the structure as drawn.

As a reminder, the solubility is how much of the substance goes into solution per volume. Low values mean a poorly soluble substance, high ones a readily soluble substance.

In turn, `O=C(O)c1cccc2cccc([N+](=O)[O-])c12` registered a solubility of 1780 µM (≈ 386 µg/mL).
